Measured values reported in PubChem BioAssay AID330 (DTP/NCI, 2004).
The list shows only some results of the screen, not a fair sample: it is rich in T/C values a quarter to a half above the control, in often repeated tests (any T/C) and in doses without a T/C. Further doses and runs are listed elsewhere. T/C: endpoint of the treated group in % of that of the vehicle group. Some doses have a count of surviving animals in place of a T/C: the source files T/C as zero there, which appears to mark a toxic dose or a test without result, not a measured value. Some doses without a T/C left all or most animals alive at the check, yet need not have been tolerated: the source hardly ever lists a survival T/C far under the control, and the zero likely stands for such cases as well. Counts of survivors are from the toxicity check (mostly the fifth day) where no day follows; animals may have died later. Schedule codes are those of the source, taken here to give the interval after Q, in days (D) or hours (H), and the number of doses after X. Some structures stand for samples that the source files as different forms (salt, stereo form or complex); doses refer to the form tested. Signs of the kind (2×) give the number of equal values in this list. Some entries were tested several times; the results are listed from low to high. For survival time, the PubChem record calls one and a half times the control and up active, and a quarter to a half above the control has no call in these data; cut-offs in other NCI protocols can differ. Some T/C values are followed by the survivors on the day toxicity was checked, most often the fifth; without a count, all were alive then.

System: P388 leukemia ip, CD2F1 mice, survival T/C
Assay: NCI In Vivo Anticancer Drug Screen. Data for tumor model P388 Leukemia (intraperitoneal) in CD2F1 (CDF1) mice
Conditions: T/C endpoint: median survival time, higher T/C = longer survival
[1] = dose: 50.0 mg/kg/injection, schedule: Q01DX009 (ip), vehicle: saline with Tween-80
[2] = dose: 50.0 mg/kg/injection, schedule: Q01DX009 (ip), vehicle: saline
[3] = dose: 100.0 mg/kg/injection, schedule: Q01DX009 (ip), vehicle: saline
[4] = dose: 200.0 mg/kg/injection, schedule: Q01DX009 (ip), vehicle: saline
[5] = dose: 200.0 mg/kg/injection, schedule: Q01DX005 (ip), vehicle: Klucel (hydroxypropylcellulose) (HPC)
[6] = dose: 100.0 mg/kg/injection, schedule: Q01DX009 (ip), vehicle: saline with Tween-80
[7] = dose: 200.0 mg/kg/injection, schedule: Q01DX009 (ip), vehicle: saline with Tween-80
[8] = dose: 100.0 mg/kg/injection, schedule: Q01DX005 (ip), vehicle: Klucel (hydroxypropylcellulose) (HPC)
[9] = dose: 50.0 mg/kg/injection, schedule: Q04DX003 (ip), vehicle: distilled water + Tween-80

SMILES: COc1ccc2cc1Oc1ccc(cc1)C[C@H]1c3cc(c(OC)cc3CCN1C)Oc1c(O)c(OC)cc3c1[C@H](C2)N(C)CC3
- survivor count (dose: 200.0 mg/kg/injection, schedule: Q01DX009 (ip), vehicle: suspension in saline): 6 of 6
- survivor count (dose: 400.0 mg/kg/injection, schedule: Q01DX009 (ip), vehicle: suspension in saline): 2 of 6

SMILES: CCCCCCC(=O)/C=C/c1cc(OC)ccc1OC
- T/C [1]: 135 % of control

SMILES: CNC(=O)OCc1c(COC(=O)NC)c(-c2ccc(SC)cc2)n(C)c1C
- T/C (dose: 3.12 mg/kg/injection, schedule: Q01DX009 (ip), vehicle: distilled water + Tween-80): 130 % of control
- T/C (dose: 6.25 mg/kg/injection, schedule: Q01DX009 (ip), vehicle: distilled water + Tween-80): 142 and 143 % of control
- T/C (dose: 12.5 mg/kg/injection, schedule: Q01DX009 (ip), vehicle: distilled water + Tween-80): 144 % of control
- T/C (dose: 25.0 mg/kg/injection, schedule: Q01DX009 (ip), vehicle: distilled water + Tween-80): 144 and 145 % of control
- survivor count (dose: 50.0 mg/kg/injection, schedule: Q01DX009 (ip), vehicle: distilled water + Tween-80): 6 of 6

SMILES: CCCCCCC[CH2][Sn]([S][Sn]([CH2]CCCCCCC)([c]1ccccc1)[c]1ccccc1)([c]1ccccc1)[c]1ccccc1
- survivor count [2]: 6 of 6
- survivor count [3]: 6 of 6

SMILES: CC(=O)N(C)c1ccc(NC(=O)Nc2cc(C)ccc2C)cc1
- survivor count [4]: 6 of 6

SMILES: O=C(O)c1cc([N+](=O)[O-])ccc1Nc1ccccc1
- survivor count (dose: 12.5 mg/kg/injection, schedule: Q01DX009 (ip), vehicle: suspension in saline): 6 of 6

SMILES: CCCCCCCCCCCCCCCCCC[N+](C)(C)C
- T/C (dose: 6.25 mg/kg/injection, schedule: Q01DX009 (ip), vehicle: saline): 127 % of control
- survivor count (dose: 12.5 mg/kg/injection, schedule: Q01DX009 (ip), vehicle: saline): 6 of 6

SMILES: CC1=CC(O)C(O)C2(C)C1CC(=O)C13COC4OC(CC1C4=O)C(O)C32 (stereo not drawn)
- T/C (dose: 8.0 mg/kg/injection, schedule: Q01DX009 (ip), vehicle: Klucel (hydroxypropylcellulose) (HPC)): 128 % of control

SMILES: CCCCN(CCCC)CCOc1c[nH]c(=O)[nH]c1=O
- survivor count [5]: 0 of 5

SMILES: CCCCCCCCCCCCCC(=O)OCCN1CCN(CCCN2c3ccccc3Sc3ccc(C(F)(F)F)cc32)CC1
- survivor count [1]: 6 of 6
- survivor count [6]: 1 of 6
- survivor count [7]: 0 of 6

SMILES: CCNCc1c(C)[nH]c2ccc(N(C)C)cc2c1=O
- survivor count [4]: 6 of 6

SMILES: CC[C@@]1(O)C[C@H](OC2CC(N(C)C)C(OC3CC(O)C(OC4CCC(=O)C(C)O4)C(C)O3)C(C)O2)c2c(cc3c(c2O)C(=O)c2c(O)ccc(O)c2C3=O)[C@H]1C(=O)OC (stereo partly drawn)
- T/C (dose: 1.0 mg/kg/injection, schedule: Q04DX003 (ip), vehicle: saline with Tween-80): 135, 136, 144, 148 % of control
- T/C (dose: 1.56 mg/kg/injection, schedule: Q04DX003 (ip), vehicle: saline): 129 and 144 % of control
- T/C (dose: 1.56 mg/kg/injection, schedule: Q04DX003 (ip), vehicle: water, evaluated on day 30): 136 % of control
- T/C (dose: 1.56 mg/kg/injection, schedule: Q04DX003 (ip), vehicle: water, evaluated on day 45): 142 % of control
- T/C (dose: 2.0 mg/kg/injection, schedule: Q04DX003 (ip), vehicle: saline with Tween-80): 142 and 146 % of control
- T/C (dose: 2.59 mg/kg/injection, schedule: Q04DX003 (ip), vehicle: saline): 127, 138, 144 % of control
- T/C (dose: 2.59 mg/kg/injection, schedule: Q04DX003 (ip), vehicle: water): 143 % of control
- T/C (dose: 7.2 mg/kg/injection, schedule: Q04DX003 (ip), vehicle: saline): 144 % of control
- survivor count (dose: 8.0 mg/kg/injection, schedule: Q04DX003 (ip), vehicle: saline with Tween-80): 6 of 6 (2×)
- survivor count (dose: 12.0 mg/kg/injection, schedule: Q04DX003 (ip), vehicle: saline): 8 of 8
- survivor count (dose: 12.0 mg/kg/injection, schedule: Q04DX003 (ip), vehicle: water): 6 of 8
- survivor count (dose: 16.0 mg/kg/injection, schedule: Q04DX003 (ip), vehicle: saline with Tween-80): 2 of 6 and 6 of 6

SMILES: CC(C)(C)[NH2+][B-](F)(F)F
- survivor count (dose: 25.0 mg/kg/injection, schedule: Q01DX005 (ip), vehicle: saline): 0 of 6
- survivor count (dose: 50.0 mg/kg/injection, schedule: Q01DX005 (ip), vehicle: saline): 0 of 6
- survivor count (dose: 100.0 mg/kg/injection, schedule: Q01DX005 (ip), vehicle: saline): 0 of 6
- survivor count (dose: 200.0 mg/kg/injection, schedule: Q01DX005 (ip), vehicle: saline): 0 of 6

SMILES: CC1(O)Oc2c(cc(C(C)(C)C)cc2C(C)(C)C)C1=O (stereo not drawn)
- survivor count [2]: 6 of 6
- survivor count [3]: 6 of 6
- survivor count [4]: 6 of 6

SMILES: [Br][Sn]([Br])([CH2]CC[CH2][Sn]([Br])([Br])[c]1ccccc1)[c]1ccccc1
- survivor count [8]: 0 of 6
- survivor count [5]: 0 of 6

SMILES: C/C(=N\Nc1ccc2ccccc2n1)c1ccccn1
- survivor count [8]: 1 of 6
- survivor count [5]: 1 of 6

SMILES: CCC(=N\N=C(N)N)/C(CC)=N/N=C(N)N
- survivor count (dose: 240.0 mg/kg/injection, schedule: Q01DX005 (ip), vehicle: saline with Tween-80): 0 of 6

SMILES: CCO/C=C1/N=C(c2cccc(Cl)c2)OC1=O
- survivor count (dose: 100.0 mg/kg/injection, schedule: Q04DX002 (ip), vehicle: saline + Tween-80 + alcohol): 6 of 6
- survivor count (dose: 200.0 mg/kg/injection, schedule: Q04DX002 (ip), vehicle: saline + Tween-80 + alcohol): 6 of 6

SMILES: NC(=S)N/N=C/c1ccc(N)cn1
- survivor count [1]: 0 of 6
- survivor count [6]: 0 of 6
- survivor count [7]: 0 of 6

SMILES: C[Si](OC(=O)N(CCCl)CCCl)(c1ccccc1)c1ccccc1
- survivor count (dose: 25.0 mg/kg/injection, schedule: Q01DX009 (ip), vehicle: Klucel (hydroxypropylcellulose) (HPC)): 6 of 6
- survivor count (dose: 50.0 mg/kg/injection, schedule: Q01DX009 (ip), vehicle: Klucel (hydroxypropylcellulose) (HPC)): 6 of 6
- survivor count (dose: 100.0 mg/kg/injection, schedule: Q01DX009 (ip), vehicle: Klucel (hydroxypropylcellulose) (HPC)): 1 of 6

SMILES: Clc1cccc(Cl)c1NC1=NCCS1
- survivor count (dose: 200.0 mg/kg/injection, schedule: Q01DX009 (ip), vehicle: Klucel (hydroxypropylcellulose) (HPC)): 0 of 6

SMILES: NNP(=O)(NN)C(Cl)(Cl)Cl
- survivor count (dose: 120.0 mg/kg/injection, schedule: Q01DX005 (ip), vehicle: saline): 6 of 6
- survivor count (dose: 240.0 mg/kg/injection, schedule: Q01DX005 (ip), vehicle: saline): 0 of 6

SMILES: CCN=NNc1ccc(C)cc1
- T/C [1]: 125 % of control
- T/C [6]: 130 % of control [5 of 6 alive]

SMILES: CC(C)CC(NC(=O)C(CSCc1ccccc1)NC(=O)OCc1ccccc1)C(N)=O (stereo not drawn)
- survivor count (dose: 50.0 mg/kg/injection, schedule: Q01DX005 (ip), vehicle: Klucel (hydroxypropylcellulose) (HPC)): 6 of 6
- survivor count [8]: 6 of 6
- survivor count [5]: 6 of 6

SMILES: CN(C)c1ccc(/C=C\C(=O)c2ccc(C(=O)/C=C/c3ccc(N(C)C)cc3)cc2)cc1
- survivor count [1]: 6 of 6
- survivor count [6]: 6 of 6
- survivor count [7]: 6 of 6

SMILES: Cc1c2cc[n+](CCCCCCCC[n+]3ccc4c(C)c5[nH]c6ccccc6c5cc4c3C)c(C)c2cc2c1[nH]c1ccccc12
- T/C [9]: 128 and 133 % of control
- survivor count [9]: 3 of 6
- survivor count (dose: 100.0 mg/kg/injection, schedule: Q04DX003 (ip), vehicle: distilled water + Tween-80): 1 of 6 and 3 of 6
- survivor count (dose: 200.0 mg/kg/injection, schedule: Q04DX003 (ip), vehicle: distilled water + Tween-80): 5 of 6
- survivor count (dose: 400.0 mg/kg/injection, schedule: Q04DX003 (ip), vehicle: distilled water + Tween-80): 2 of 6

SMILES: Cc1ccc(CCN2CSC(=S)N(CCc3ccc(C)cc3)C2)cc1
- survivor count (dose: 100.0 mg/kg/injection, schedule: Q01DX009 (ip), vehicle: other): 6 of 6
- survivor count (dose: 200.0 mg/kg/injection, schedule: Q01DX009 (ip), vehicle: other): 4 of 6

SMILES: C#CCOc1ccccc1C(=O)NNc1ccc([N+](=O)[O-])cc1[N+](=O)[O-]
- survivor count [7]: 6 of 6

SMILES: CC1(C)CCCC2=C1C(=O)N(SC(Cl)(Cl)Cl)C2=O
- survivor count [8]: 0 of 6
- survivor count [5]: 0 of 6
